The list shows a part of the results.
Biological target: T1, OsSMF1 (Oryza sativa, UniProt Q6ZLB0 1-436)
T1 sequence: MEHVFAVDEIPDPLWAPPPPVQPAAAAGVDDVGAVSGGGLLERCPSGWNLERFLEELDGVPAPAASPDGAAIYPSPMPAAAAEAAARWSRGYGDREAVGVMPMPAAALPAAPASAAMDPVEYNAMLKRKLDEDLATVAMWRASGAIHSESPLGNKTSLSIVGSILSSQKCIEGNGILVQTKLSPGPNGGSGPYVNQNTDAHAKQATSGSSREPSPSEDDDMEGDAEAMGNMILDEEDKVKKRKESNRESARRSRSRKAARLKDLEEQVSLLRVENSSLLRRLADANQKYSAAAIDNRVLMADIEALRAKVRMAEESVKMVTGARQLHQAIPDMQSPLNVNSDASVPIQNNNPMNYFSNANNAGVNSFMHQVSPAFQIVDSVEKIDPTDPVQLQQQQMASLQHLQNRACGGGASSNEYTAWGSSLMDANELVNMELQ
Assay: protein-binding microarray (RPBM); PBS, 2% BSA, 51.3 ng/ul salmon testes DNA, 50 uM zinc acetate, 200 nM TF, 25 C, 1 h; high values mean tight binding
Conditions: protein: recombinant; tags: N-terminal polyhistidine and DsRed monomer fusion (pET32a); chain copies: 2; label: CyDye5-dUTP incorporated in the synthesized complementary strand; 3' TTTTT single-stranded linker to array surface; dsDNA, one strand shown
Procedure, shortened: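 In PBS with 2% BSA, salmon testes DNA and 50 µM zinc acetate, 200 nM protein was incubated on a custom Agilent array at 25 °C for 1 h and then washed off. The array had been made double-stranded by primer extension with Cy5-dUTP and blocked with 2% BSA. The proteins were transcription factors fused N-terminally to polyhistidine and DsRed, expressed in E. coli BL21-CodonPlus and purified on Ni–NTA. The binding signal is per-feature fluorescence intensity (arbitrary units) from an Axon 4000B scanner.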

Q: For “GCCCGTGGCCCACGGCCGCTTTGCTTCGCCACGATACCCGCGGAGTCACCTAGTGCAG”, which binding signal is on record?
A: Its binding signal is 4700 fluorescence intensity (a.u.).

Q: “GTGTTGTTGTTGTTGCTGCTGCGTTGGTGTCTCGTCGACGCGGAGTCACCTAGTGCAG” was tested. Which binding signal did it give?
A: Its binding signal is 3370 fluorescence intensity (a.u.).

Q: With “CACTTAACCGTTGGGCTAAATGCCAGCCGATGGCTTCTCTCGGAGTCACCTAGTGCAG” as the sequence, how does the binding signal read?
A: Its binding signal is 3650 fluorescence intensity (a.u.).

Q: For “TGGGCCATCAATCCTCTCTTTCCCTCTCTTCCCTTCCTTGCGGAGTCACCTAGTGCAG”, which binding signal is on record?
A: The binding signal was 30400 fluorescence intensity (a.u.).

Q: For “TTTGCTGGTCAAATTAAACGATGCGCATCCACGTTTGACGCGGAGTCACCTAGTGCAG”, which binding signal is on record?
A: The binding signal was 3960 fluorescence intensity (a.u.).

Q: Which binding signal does the source give for “GTTCGATGCATCTCGCCACCATGACGTGTACCGCGAAAGACGGAGTCACCTAGTGCAG” here?
A: Its binding signal is 17400 fluorescence intensity (a.u.).

Q: With “TGGAAGTTATATAGCTATATTTATGATGCTACGTGGCTTCCGGAGTCACCTAGTGCAG” as the sequence, how does the binding signal read?
A: Its binding signal is 7060 fluorescence intensity (a.u.).

Q: “CGCGGTCGACCCACCGTCTGCCACGTCAGCTTGCTGCCCACGGAGTCACCTAGTGCAG” was tested. Which binding signal did it give?
A: Its binding signal is 25600 fluorescence intensity (a.u.).

Q: “TAAATAAAAGACACATGATTTCTGTGGGATAACTTTGTATCGGAGTCACCTAGTGCAG” was tested. Which binding signal did it give?
A: Its binding signal is 3500 fluorescence intensity (a.u.).

Q: How did the binding signal turn out when “GGTGAAGACGCTGATTCGTCTCAAACAAGTGATGACGACGCGGAGTCACCTAGTGCAG” was run?
A: The binding signal was 3220 fluorescence intensity (a.u.).

Q: For “CTATGTAGCGTGAGATCCTCTGCCGTCGACGCCATCTTCTCGGAGTCACCTAGTGCAG”, which binding signal is on record?
A: The binding signal was 3320 fluorescence intensity (a.u.).

Q: Which binding signal does the source give for “ACTCCAAGTAGCTCGCTCTACGTAATGAACTGTATGTACCCGGAGTCACCTAGTGCAG” here?
A: Its binding signal is 4040 fluorescence intensity (a.u.).

Q: Which binding signal does the source give for “CCCGGCGTCGGTGAGCTCCTCCCTGCCAACCGCCACCCTTCGGAGTCACCTAGTGCAG” here?
A: The binding signal was 4320 fluorescence intensity (a.u.).

Q: Which binding signal does the source give for “CCGCAACGTCTCGTTGTCGTCGTCACCGGATAAGCATTGGCGGAGTCACCTAGTGCAG” here?
A: Its binding signal is 4440 fluorescence intensity (a.u.).

Q: How did the binding signal turn out when “TATGTGCTTTCACTAGATAATATGTGTGAATGACATGGCGCGGAGTCACCTAGTGCAG” was run?
A: The binding signal was 8740 fluorescence intensity (a.u.).

Q: With “AGAGGTTCAAACTGTATATGTTCTAGACCATTCACAAGCTCGGAGTCACCTAGTGCAG” as the sequence, how does the binding signal read?
A: The binding signal was 64100 fluorescence intensity (a.u.).

Q: Which binding signal does the source give for “GAAGCAGTCTCGTAGCTCCTCGTAGCTACCACACCAACACCGGAGTCACCTAGTGCAG” here?
A: The binding signal was 3170 fluorescence intensity (a.u.).

Q: How did the binding signal turn out when “TTAGGCCACGACAGCAAATCTTGTTTCTTTCCATGCCCACCGGAGTCACCTAGTGCAG” was run?
A: Its binding signal is 6740 fluorescence intensity (a.u.).

Q: For “TGAAATTAGAGTGCCTTGTAACAAATTTAATTTGCCTAAACGGAGTCACCTAGTGCAG”, which binding signal is on record?
A: The binding signal was 4070 fluorescence intensity (a.u.).

Q: “GAGGGAGTAATAGCTTTCTCATGTGCGTCAGCTTAATTTTCGGAGTCACCTAGTGCAG” was tested. Which binding signal did it give?
A: Its binding signal is 4380 fluorescence intensity (a.u.).

Q: “TTGCTTGGTTTCTGCCACTTCTCATGCAGTGACTTGTACTCGGAGTCACCTAGTGCAG” was tested. Which binding signal did it give?
A: Its binding signal is 3970 fluorescence intensity (a.u.).

Q: “CTGTGCCTTGGCGGTTCGCTCTGGAGTCACATATAATGCCCGGAGTCACCTAGTGCAG” was tested. Which binding signal did it give?
A: Its binding signal is 3220 fluorescence intensity (a.u.).

Q: How did the binding signal turn out when “ACGTGATAAAGTCAGTGGTAAATTGTAGAAGTGTGACAAACGGAGTCACCTAGTGCAG” was run?
A: Its binding signal is 35800 fluorescence intensity (a.u.).

Q: Which binding signal does the source give for “GGGGCCCACGGCGCGACCTGCCACGTGTCGCGCCTCGATTCGGAGTCACCTAGTGCAG” here?
A: The binding signal was 15900 fluorescence intensity (a.u.).

Q: “ACGCTAGCCACAGTGCACGGGTGGCGGCGGAGGAGGTGGGCGGAGTCACCTAGTGCAG” was tested. Which binding signal did it give?
A: The binding signal was 25100 fluorescence intensity (a.u.).

Q: Which binding signal does the source give for “CAGCTTAGCCTTAGCCCAACGATGACGACGAGATATCAGACGGAGTCACCTAGTGCAG” here?
A: The binding signal was 3550 fluorescence intensity (a.u.).

Q: Which binding signal does the source give for “GGATCCATCCGCGCCCGCCGCTGACGCTGCCACCGCCGCCCGGAGTCACCTAGTGCAG” here?
A: The binding signal was 6640 fluorescence intensity (a.u.).

Q: With “ATGGCCTCATCCGCCGCCACGCTGTCGTAGCCCTCTCGCGCGGAGTCACCTAGTGCAG” as the sequence, how does the binding signal read?
A: The binding signal was 5980 fluorescence intensity (a.u.).

Q: For “GTCGTCCCGCCGCCGATGACGTCCGGTGGCGGGCCCTACTCGGAGTCACCTAGTGCAG”, which binding signal is on record?
A: The binding signal was 3490 fluorescence intensity (a.u.).

Q: With “CGACGCGCGAAGAACCCCGCACCACCACCACCCCACGCGGCGGAGTCACCTAGTGCAG” as the sequence, how does the binding signal read?
A: The binding signal was 3210 fluorescence intensity (a.u.).

Q: With “TTCATTAGTTCTTTGCAAACTTAGCGTCATGTTCATTAGACGGAGTCACCTAGTGCAG” as the sequence, how does the binding signal read?
A: The binding signal was 3420 fluorescence intensity (a.u.).

Q: For “TGTACCACACTTCATATATCATGAGTCACTTCATGTCTGGCGGAGTCACCTAGTGCAG”, which binding signal is on record?
A: Its binding signal is 8000 fluorescence intensity (a.u.).

Q: Which binding signal does the source give for “CCTTGTCGCCGCCACACAAAGTCGCTGCCGCCATCGTGTACGGAGTCACCTAGTGCAG” here?
A: Its binding signal is 3150 fluorescence intensity (a.u.).

Q: How did the binding signal turn out when “GGTATTAATTGTCGAGCCATGCATCCACGTGCACAGGGTACGGAGTCACCTAGTGCAG” was run?
A: Its binding signal is 5860 fluorescence intensity (a.u.).

Q: How did the binding signal turn out when “GGATGCGGTGACGGCGGAGTGACAGTGTCTGAGGTGAGGACGGAGTCACCTAGTGCAG” was run?
A: Its binding signal is 3440 fluorescence intensity (a.u.).

Q: Which binding signal does the source give for “ATCGTCGTCGTCATCGGTATCCTTCATTCTGACATGCATTCGGAGTCACCTAGTGCAG” here?
A: Its binding signal is 4520 fluorescence intensity (a.u.).

Q: For “AGATTCTTCGCTGACCTCATCATTCGCCTCGCCGCCGCCCCGGAGTCACCTAGTGCAG”, which binding signal is on record?
A: The binding signal was 6820 fluorescence intensity (a.u.).

Q: With “AGTGATCACTTGCTTCAAAGGGTGCAGCAGTGTAGGAGAGCGGAGTCACCTAGTGCAG” as the sequence, how does the binding signal read?
A: Its binding signal is 18900 fluorescence intensity (a.u.).

Q: For “CGTGGGAAGAAGACAGTCAAAGAAGCCACGTCAGGCAAAACGGAGTCACCTAGTGCAG”, which binding signal is on record?
A: The binding signal was 14800 fluorescence intensity (a.u.).

Q: With “CAAAATTACTCCAGCAGGAAGCATGAGGTTTGCCGTTTTGCGGAGTCACCTAGTGCAG” as the sequence, how does the binding signal read?
A: The binding signal was 17900 fluorescence intensity (a.u.).

Q: “TAATACCTGCAGCTGTGTGTAGTATATATAGAGCCGTTTGCGGAGTCACCTAGTGCAG” was tested. Which binding signal did it give?
A: The binding signal was 3780 fluorescence intensity (a.u.).

Q: “GCACGCCCGAGGCGGGCCCCACCTGTCAGCGACCCCGCGACGGAGTCACCTAGTGCAG” was tested. Which binding signal did it give?
A: Its binding signal is 4620 fluorescence intensity (a.u.).
